# PubChem BioAssay AID623959 (National Center for Advancing Translational Sciences (NCATS), 2012)
# The chains behind the UniProt entries cited, without tags or fusion partners.
# UniProt Q8NER1, whole entry, looked up: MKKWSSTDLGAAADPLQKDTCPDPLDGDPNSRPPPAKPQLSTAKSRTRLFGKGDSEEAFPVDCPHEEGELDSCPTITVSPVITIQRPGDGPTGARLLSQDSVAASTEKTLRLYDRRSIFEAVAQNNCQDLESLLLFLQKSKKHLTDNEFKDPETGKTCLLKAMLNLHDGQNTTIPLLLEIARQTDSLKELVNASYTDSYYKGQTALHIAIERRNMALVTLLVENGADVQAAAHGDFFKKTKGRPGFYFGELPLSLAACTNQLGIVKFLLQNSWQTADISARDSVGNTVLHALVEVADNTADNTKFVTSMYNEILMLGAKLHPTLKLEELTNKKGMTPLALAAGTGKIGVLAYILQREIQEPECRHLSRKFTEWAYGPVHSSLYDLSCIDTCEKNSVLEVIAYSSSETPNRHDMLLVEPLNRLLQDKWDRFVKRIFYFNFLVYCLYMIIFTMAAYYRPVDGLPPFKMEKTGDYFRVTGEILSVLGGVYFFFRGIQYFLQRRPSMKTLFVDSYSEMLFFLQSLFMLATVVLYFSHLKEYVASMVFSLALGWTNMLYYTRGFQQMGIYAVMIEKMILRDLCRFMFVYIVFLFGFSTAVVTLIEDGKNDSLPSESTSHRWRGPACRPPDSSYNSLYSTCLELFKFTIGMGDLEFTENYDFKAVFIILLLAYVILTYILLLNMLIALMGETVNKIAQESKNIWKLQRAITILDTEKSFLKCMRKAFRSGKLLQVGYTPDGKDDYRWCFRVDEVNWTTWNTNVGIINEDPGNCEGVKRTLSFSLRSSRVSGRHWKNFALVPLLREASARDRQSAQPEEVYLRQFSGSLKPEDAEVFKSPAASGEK
# Fewer than 10 of roughly 1,400 compounds were called active. About 8% were inconclusive and are not listed. The call rests on the fitted dose curve; in most records, active means well fitted curve in the direction sought with a large enough effect; inconclusive means small, poorly fitted or top-dose-only effect, or another doubt; inactive means no such curve, though single readings can be large or run the other way. Some of the results follow.
# Target: Transient receptor potential cation channel subfamily V member 1 (Homo sapiens) (UniProt Q8NER1)
# Assay: qHTS Assay for Compounds that Act as Potentiators of the Vanilloid Receptor 1: Hit Validation; further: % of control where 0% means no effect
# Settings: TRPV1-expressing cells, Fluo-8 calcium influx, capsaicin EC20; series mostly up to 42.1 µM; activity change, positive = potentiation: at the top concentration
# Method in brief: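 Calcium influx via Fluo-8 fluorescence (480/520 nm) on FDSS: 10 s baseline, 3 min compound read, 2 min read after EC20 capsaicin. TRPV1-expressing cells plated 2000/well, grown overnight at 35.5 °C.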
row,Compound,"activity change, positive = potentiation"
1,CCS(=O)(=O)c1ncc(Cl)c(C(=O)Nc2ccc(S(=O)(=O)N(C)c3ccccc3)cc2)n1,inactive: -1.57%
2,Cc1ccc(NCc2n[nH]c(=S)n2-c2ccccc2)c(C)c1,inactive: 9.07%
3,CCn1c(=O)c(C(=O)NC(C)c2ccccc2)c(O)c2ccccc21 (stereo unspecified),inactive: 4.96%
4,O=C(Nc1cccc([N+](=O)[O-])c1)c1ccc(-c2ccccc2)cc1,inactive: -38.6%
5,O=C(Nc1c2c(nn1-c1ccccc1)CS(=O)(=O)C2)c1ccc2c(c1)OCO2,inactive: 5.08%
6,CCOc1cc2[nH]c(=S)n(CCC(=O)NCc3ccco3)c(=O)c2cc1OCC,inactive: -5.05%
7,Cc1nc(-c2ccc(F)cc2)c(CC(=O)N(C)CC(=O)Nc2ccccc2Br)s1,inactive: -6.17%
8,COc1cccc(/C=C2\SC(N3CCC(C)CC3)=NC2=O)c1OC,inactive: -38.7%
9,O=S(=O)(ON(c1ccccc1)S(=O)(=O)c1ccccc1)c1ccccc1,inactive: -1%
10,C=C(Cl)COc1ccc2c(C)cc(=O)oc2c1,inactive: 0.569%
11,COc1ccc(S(=O)(=O)N2CCCC2)cc1C(=O)O,inactive: -4.69%
12,CCOC(=O)c1c(C)[nH]c(C)c1C(=O)CN1C(=O)NC(CC(C)C)C1=O (stereo unspecified),inactive: 0.659%
13,O=C(CCc1ccccc1)NNC(=O)c1cc(Cl)ccc1O,inactive: -4.05%
14,CC(=O)c1ccc(N2CCN(C(=O)Nc3ccc(Cl)cc3)CC2)cc1,inactive: -36.8%
15,CCc1ccc(/C=N/NC(=O)c2c[nH]c3ccccc23)s1,inactive: -39%
16,COc1cc(C(=O)OCC(=O)NC(N)=O)cc(CN2C(=O)c3ccccc3C2=O)c1OC,inactive: 6.56%
17,O=C(NCc1cccnc1)c1cccc(S(=O)(=O)N2CCCC2)c1,inactive: 1.42%
18,CCC(C)c1ccc(NC(=O)N2CCOCC2)cc1 (stereo unspecified),inactive: -38%
19,Cc1ccc(C(=O)NCCN2CCNC2=O)cc1,inactive: 0.573%
20,CCCc1cc(C(=O)NNC(=S)NC(C)c2ccccc2)cs1 (stereo unspecified),inactive: 11%
21,NS(=O)(=O)c1cccc(NC(=O)/C=C/c2cccs2)c1,inactive: -39.1%
22,N#Cc1ccccc1N1CCN(C(=O)c2ccc(NC(=O)c3ccc(Br)o3)cc2)CC1,inactive: -2.51%

row,Compound,"activity change, positive = potentiation"
1,O=C(/C=C/c1cccc2ccccc12)N1CCOCC1,inactive: -31.4%
2,Cc1nn(-c2ccccc2)c(NC(=O)c2ccccc2)c1Br,inactive: 1.93%
3,Cc1cc(C(=O)Nc2ccc([N+](=O)[O-])cn2)cs1,inactive: -3.84%
4,CCOC(=O)[C@H]1[C@H]2COc3ccccc3[C@@H]2N2C(=O)c3ccc(C)cc3NC(=O)[C@@]12C,inactive: -37.8%
5,O=C(/C=C\c1cn(-c2ccccc2)nc1-c1cccs1)N1CCOCC1,inactive: -37.9%
6,O=C(NC(Cc1c[nH]c2ccccc12)C(=O)O)/C(=C\c1ccc2c(c1)OCO2)NC(=O)c1ccccc1 (stereo unspecified),inactive: -6.18%
7,CCN(CC)c1ccc(NC(=O)c2cnccn2)cc1S(=O)(=O)Nc1ccc(OC)cc1,inactive: -38.7%
8,O=C(C1=NOC(CNc2ncc(C(F)(F)F)cc2Cl)C1)N1CCOCC1 (stereo unspecified),inactive: -39.4%
9,COc1ccc(C)cc1N(C(=O)COc1ccccc1)c1nc2ccccc2s1,inactive: -1.89%
10,CC(=O)Nc1ccccc1OCc1nnc(-c2ccccc2Cl)o1,inactive: -4.83%
11,Cc1cc2c(cc1C)NC(c1cccnc1)C1=C(CC(C)(C)CC1=O)N2 (stereo unspecified),inactive: -7.46%
12,COc1ccc(/C=N/NC(=O)c2cccnc2)cc1,inactive: 4.5%
13,CN1CCN(c2ccc(S(=O)(=O)N3CCCCC3)cc2NC(=O)c2ccc(F)cc2F)CC1,inactive: -5.75%
14,CCCc1cc(=O)[nH]c(SCC(=O)N2CCN(c3ccc(F)cc3)CC2)n1,inactive: -6.29%
15,Cc1noc(C)c1-c1nc(CSc2ccccc2)no1,inactive: 7.19%
16,Cc1onc(-c2cccc(Cl)c2Cl)c1C(=O)O/N=C(\N)c1ccc([N+](=O)[O-])o1,inactive: -1.45%
17,O=C(CSc1nnc(Cc2ccccc2)o1)NC1CC2CCC1C2 (stereo unspecified),inactive: 6.43%
18,Cc1ccc(NC(=O)CSc2nnc(Cc3cccn3C)n2-c2ccc(F)cc2)c(C)c1,inactive: -7.27%
19,CC(O)CNc1nc2sc3c(c2c(=O)n1Cc1ccco1)CCCCC3 (stereo unspecified),inactive: -2.72%
20,Cc1cccc(NC(=O)CC23CC4CC(C2)CC(n2nnc(C)n2)(C4)C3)c1,inactive: -6.74%
21,COc1ccc(C2C(C(=O)c3sc(C)nc3C)=C(O)C(=O)N2CCN2CCOCC2)cc1 (stereo unspecified),inactive: -1.93%
22,Cc1cc(NC(=O)CCCOc2ccc(Cl)cc2Cl)no1,inactive: -8.04%

row,Compound,"activity change, positive = potentiation"
1,Cn1cnnc1SCC(=O)Nc1ccccc1Oc1ccccc1,inactive: -6.49%
2,CCC(C)Sc1nnc(Cc2cc(=O)[nH]c(=O)[nH]2)n1-c1ccc(F)cc1 (stereo unspecified),inactive: 3.24%
3,Cn1c(C(=O)N2CCOCC2)cnc1Sc1ncc(C(F)(F)F)cc1Cl,inactive: 1.37%
4,COc1cccc(C(=O)N(C)CC2CCN(CCc3cccc(C(F)(F)F)c3)CC2)c1,inactive: 5.31%
5,CCc1nc(Nc2ccc3c(c2)OCCO3)c2oc3ccccc3c2n1,inactive: -39.2%
6,Cc1ccc(-c2csc(NC(=O)CN3CCOCC3)n2)cc1C,inactive: -39.1%
7,Cc1ccc(OCC(=O)c2c[nH]c3ccccc23)c([N+](=O)[O-])n1,inactive: -9.4%
8,CCOC(=O)[C@H]1[C@H]2COc3ccc(Br)cc3[C@@H]2N2C(=O)c3cc(F)c(F)cc3NC(=O)[C@@]12C,inactive: -38.8%
9,CC1CCC(NC(=O)C2(C)CCC(=O)N2Cc2cccnc2)CC1 (stereo unspecified),inactive: -8.11%
10,CC(=O)N(C)C1(c2nnnn2CCOC(=O)Nc2ccc(Cl)cc2)CCCCC1,inactive: -4.12%
11,Cc1ccc(C(=O)CSc2nc3ccc(C(=O)NCCN4CCCCC4)cc3c(=O)[nH]2)cc1,inactive: -5.24%
12,O=C1C(=O)N(Cc2cccnc2)C(c2cccc([N+](=O)[O-])c2)/C1=C(/O)c1ccc2c(c1)OCO2 (stereo unspecified),inactive: 0.0194%
13,Cc1cccc(N2CCN(C(=S)Nc3ccc4nc(N5CCOCC5)cc(C)c4c3)CC2C)c1 (stereo unspecified),inactive: -2.81%
14,CCc1ccc(CNC(=O)CCc2cn(C)c3ccccc23)cc1,inactive: -5.05%
15,S=C(Nc1ccccc1Cl)N(Cc1ccccc1)Cc1ccccn1,inactive: 1.78%
16,O=C(NCc1nnc(SCC(=O)N2CCc3ccccc32)o1)c1cccs1,inactive: 7.25%
17,O=C(O)c1ccc(CSc2nnc(-c3ccccc3Br)o2)cc1,inactive: -2.28%
18,CC(/C=C/c1ccc2c(c1)OCO2)=N\NC(=O)c1ccccc1,inactive: 6.97%
19,COC(=O)CCC(=O)OC1(C)C(=O)C=C2C=C(C3CC3)N(c3ccccc3)C=C2C1=O (stereo unspecified),inactive: -6.19%
20,CCc1nnc(NC(=O)CSc2nnc(CNC(=O)c3cc(OC)c(OC)c(OC)c3)o2)s1,inactive: -9.07%
21,CCOc1cc(S(=O)(=O)NCc2ccccc2)ccc1F,inactive: -4.71%
22,COc1cccc(C=Nc2ccc3c(c2)OCCO3)c1O,inactive: -6.77%

row,Compound,"activity change, positive = potentiation"
1,O=C(OCc1cc2ccccc2[nH]c1=O)c1ccc([N+](=O)[O-])cc1,inactive: -10.2%
2,COc1ccc(CCNC(=O)CCCOc2cccc(C)c2C)cc1OC,inactive: -32.2%
3,COC(=O)C1=C(C(=O)OC)[C@@H]2N(Cc3ccccc3)c3ccccc3[C@@]23C[C@@H](C(=O)OC)N(C(=O)COCc2ccccc2)C3=N1,inactive: -14.7%
4,Cc1ccc(C2Nc3cccc4cccc(c34)N2)cc1,inactive: -16.1%
5,Cc1cccc(C(C)n2nnc3ccccc32)c1O (stereo unspecified),inactive: -7.52%
6,CC(NC(=O)COC(=O)c1ccc(Cl)cc1O)c1ccc(F)cc1 (stereo unspecified),inactive: -32.2%
7,O=C(Cc1ccccc1)NCCSC1CCCCC1,inactive: -31.6%
8,COc1ccccc1C(=O)C1CCCN(Cc2cccc(OCCO)c2)C1 (stereo unspecified),inactive: -5.3%
9,Nn1c(SC/C=C/c2ccccc2)nnc1-c1cccnc1,inactive: 1.13%
10,CCC(C)Sc1cccc(-c2nc3cc(C)ccn3c2NCc2ccccc2)c1 (stereo unspecified),inactive: -39%
11,C#CCn1c(=NC(=O)CN2C(=O)CCC2=O)sc2cccc(C)c21,inactive: -4.89%
12,CCOC(=O)C1=NOC(COc2ccccc2C=O)C1 (stereo unspecified),inactive: 2.69%
13,CC(C)(C)c1cc(CCC(=O)NCc2ccncc2)cc(C(C)(C)C)c1O,inactive: -38.4%
14,O=C1NC(=O)/C(=C\c2ccc(N3CCOCC3)o2)N1,inactive: -10.5%
15,CC(C)CN(CC(C)C)S(=O)(=O)N1CCC(C(=O)NC2CCCCCCC2)CC1,inactive: -30.9%
16,CN(C)CCCN1C(=O)C(=O)/C(=C(/O)c2ccncc2)C1c1cccc(Br)c1 (stereo unspecified),inactive: -5.04%
17,Cc1cccnc1NC(=O)C(C)Oc1ccccc1 (stereo unspecified),inactive: 3.92%
18,CCN1CCCC1CNC(=O)c1ccc2c(c1)NC(=O)/C(=C\c1ccc(OC)c(OC)c1)S2 (stereo unspecified),inactive: -8.63%
19,COc1ccc(-c2nn(-c3ccccc3)cc2C(=O)NC(=S)Nc2cc(Cl)ccc2Cl)cc1,inactive: -10.8%
20,Cn1c(=O)c2ccccc2n(CC(=O)Nc2ccc3c(c2)OCCO3)c1=O,inactive: -4.73%
21,CC(C)(C)c1ccc(NC(=O)c2ccsc2)cc1,inactive: -38.1%
22,COc1ccccc1NC(=S)Nc1cccc(F)c1,inactive: -15.2%

# By substructure, the compounds so far with bromine.
row,Compound,"activity change, positive = potentiation"
7,Cc1nc(-c2ccc(F)cc2)c(CC(=O)N(C)CC(=O)Nc2ccccc2Br)s1,inactive: -6.17%
22,N#Cc1ccccc1N1CCN(C(=O)c2ccc(NC(=O)c3ccc(Br)o3)cc2)CC1,inactive: -2.51%
2,Cc1nn(-c2ccccc2)c(NC(=O)c2ccccc2)c1Br,inactive: 1.93%
8,CCOC(=O)[C@H]1[C@H]2COc3ccc(Br)cc3[C@@H]2N2C(=O)c3cc(F)c(F)cc3NC(=O)[C@@]12C,inactive: -38.8%
17,O=C(O)c1ccc(CSc2nnc(-c3ccccc3Br)o2)cc1,inactive: -2.28%
16,CN(C)CCCN1C(=O)C(=O)/C(=C(/O)c2ccncc2)C1c1cccc(Br)c1 (stereo unspecified),inactive: -5.04%

# (list continues)

row,Compound,"activity change, positive = potentiation"
1,Nc1ccccc1C(=O)N1CCc2ccccc21,inactive: -8.96%
2,O=C(/C=C/c1ccccc1)Nc1cccnc1Cl,inactive: -35.6%
3,O=C(NCc1ccncc1)c1ccc(Oc2ccccc2)cc1,inactive: -35.7%
4,CC(C)c1ccc(/C=C/C(=O)N2CCOCC2)cc1,inactive: -38.6%
5,CCc1ccc(C(=O)CSc2n[nH]c(-c3ccncc3)n2)cc1,inactive: -4.3%
6,CCOC(=O)c1ccc(NC(=O)NCc2ccccc2OC)cc1,inactive: -33.4%
7,CC1=C(C)CC(C(=O)NCc2ccccc2F)C(C(=O)O)C1 (stereo unspecified),inactive: -7.39%
8,Cc1nn(Cc2ccc(Cl)c(Cl)c2)c(C)c1NC(=O)c1cc(-c2ccc3c(c2)OCO3)on1,inactive: -4.56%
9,COC(=O)c1ccc(CNC(=O)COC(=O)CCC2CCCC2)cc1,inactive: -27.4%
10,CSc1ncccc1C(=O)OCc1ccc(Br)cc1,inactive: -6.08%
11,CCOC(=O)[C@H]1[C@H]2COc3ccc(C)cc3[C@@H]2N2C(=O)c3cc(F)ccc3NC(=O)[C@@]12C,inactive: -39.2%
12,CCC(C(=O)O)n1nc(-c2ccccc2)c2cc(Cl)ccc21 (stereo unspecified),inactive: -0.771%
13,O=C1[C@H]2[C@@H](c3ccc(F)cc3)N3C(=O)N(c4cccc(Br)c4)C(=O)[C@@]3(Cc3ccccc3)[C@H]2C(=O)N1C1CCCCC1,inactive: -7.1%
14,CCCCn1nc(NC(=O)COC)c2cc3ccc(C)cc3nc21,inactive: -36.9%
15,Cc1cc(N/N=C/c2ccccc2)nc(N2CCOCC2)n1,inactive: -37%
16,CCC(CO)NCc1ccc(OCC(O)c2ccccc2)c(OC)c1 (stereo unspecified),inactive: -0.957%
17,COc1cc(OC)c(NC(=O)CCc2nc(-c3ccc(C)cc3)no2)cc1Cl,inactive: -4.21%
18,Cc1ccc(S(=O)(=O)N(CC(=O)Nc2ccccc2C(=O)O)c2ccccc2C)cc1,inactive: -3.23%
